According to article PMC4126692:
No constants are given. Whether binding was seen depends on the method and setting. In cells and extracts the contact can be indirect. Some binding calls cover weakened binding; strength is not graded here.

Protein sequences, listed by entry. Tags and fused reporters are not part of them.
UniProt Q08775: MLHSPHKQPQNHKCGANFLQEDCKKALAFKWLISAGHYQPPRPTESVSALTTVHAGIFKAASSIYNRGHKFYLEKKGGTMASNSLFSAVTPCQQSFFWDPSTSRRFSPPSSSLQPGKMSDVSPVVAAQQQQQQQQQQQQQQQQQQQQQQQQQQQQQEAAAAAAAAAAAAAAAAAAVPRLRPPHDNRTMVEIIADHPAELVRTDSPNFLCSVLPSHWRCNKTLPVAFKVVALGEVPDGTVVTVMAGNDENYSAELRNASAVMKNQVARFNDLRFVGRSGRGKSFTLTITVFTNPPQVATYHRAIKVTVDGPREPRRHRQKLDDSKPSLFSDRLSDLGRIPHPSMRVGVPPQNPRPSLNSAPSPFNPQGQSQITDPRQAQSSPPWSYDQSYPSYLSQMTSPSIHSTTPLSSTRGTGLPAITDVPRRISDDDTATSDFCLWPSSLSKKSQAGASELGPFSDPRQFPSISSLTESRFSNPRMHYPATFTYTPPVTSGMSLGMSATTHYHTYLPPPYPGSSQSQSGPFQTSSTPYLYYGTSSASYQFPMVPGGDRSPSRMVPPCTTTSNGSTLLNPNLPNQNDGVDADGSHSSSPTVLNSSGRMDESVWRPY

Molecular target: T1, CCAAT/enhancer binding protein β (C/EBPβ), as precipitated by the C/EBPβ antibody, isoforms not told apart (UniProt P21272)
T1 sequence: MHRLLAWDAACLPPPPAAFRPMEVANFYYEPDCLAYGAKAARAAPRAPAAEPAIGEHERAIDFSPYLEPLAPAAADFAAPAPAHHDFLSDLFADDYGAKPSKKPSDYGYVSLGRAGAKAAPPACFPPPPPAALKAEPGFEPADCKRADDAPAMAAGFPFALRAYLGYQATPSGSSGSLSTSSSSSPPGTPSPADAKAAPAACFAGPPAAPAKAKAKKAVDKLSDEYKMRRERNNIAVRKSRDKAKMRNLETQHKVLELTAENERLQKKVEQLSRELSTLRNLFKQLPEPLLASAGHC
Experiment: co-IP; nuclear extract of C/EBPβ-transfected ATDC5 cells incubated for 10 minutes with magnetic beads conjugated with C/EBPβ, RUNX2 or normal rabbit IgG antibody; immunoblotting with C/EBPβ or RUNX2 antibody

binding: binds
Substance: runt-related transcription factor-2 (RUNX2) (from UniProt Q08775 1-607)
